Laboratory results taken from PubChem BioAssay (NCATS).
This is one part of the list. The main result of the screen is listed elsewhere. These columns were measured beside it and carry no call. Compounds called inactive in the main read-out are mostly missing here. Potencies come from curve fits of mixed quality, noted in brackets.

assay: S16 Schwann cell PMP22 intronic element beta-lactamase assay (AID 624044); settings: S16 rat Schwann cells, PMP22 element beta-lactamase FRET, 24 h; measured here: 460 nm blue channel
In short: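 Rat S16 Schwann cells with beta-Lac driven by a PMP22 intronic element, compound-treated 24 h at 37 °C. LiveBLAzer FRET B/G read: 460 nm normalized to potassium clavulanate vs DMSO; 535 nm FRET as viability; concentration-effect curves classified.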

| SMILES | AC50 |
| --- | --- |
| CN1C(C(=O)Nc2ccccn2)=C(O)c2sccc2S1(=O)=O | 3.37 nM [falling, full curve, poor fit] |
| CN(C)C(=O)Nc1ccc(Cl)c(Cl)c1 | 891 nM [falling, full curve, poor fit] |
| NCCS | 19.9 nM [falling, full curve, poor fit] |
| COc1c2occc2c(OC)c2c(=O)cc(C)oc12 | 6730 nM [falling, single point] |
| CCCCCCC[N+](CC)(CC)CCCCc1ccc(Cl)cc1 | 5350 nM [falling, full curve, poor fit] |
| OCC1O[C@H](Oc2ccc(O)cc2)C(O)C(O)C1O (some centres not stated) | 25100 nM [falling, single point] |
| CN(C)CCN(Cc1cccs1)c1ccccn1 | 2240 nM [falling, partial curve, poor fit] |
